Measured values published in PubChem BioAssay AID624246 (National Center for Advancing Translational Sciences (NCATS), 2012).
Among all 370,000 compounds or so, about 100 (0.027%) were called active. Inconclusive results, whose numbers are uncertain, are shown with a selection of clear calls. Calls follow the shape of the dose curve; as a rule, active = well fitted inhibition curve with a large enough effect in the polarisation, with a control signal flat; inconclusive = small, poorly fitted or top-dose-only effect, or effect the other way, or a change in a side signal; inactive = no such curve, though single readings can be large or run the other way; the % refers to the polarisation. Where the call is inconclusive, the potency comes from a doubtful curve fit. A note “side channel” means that the fit belongs to a control or component signal, not to the main read-out.

The chains behind the UniProt entries cited, without tags or fusion partners. Where a name states a change or a piece, a line headed by the entry shows the natural chain unless it says otherwise.
UniProt P11308: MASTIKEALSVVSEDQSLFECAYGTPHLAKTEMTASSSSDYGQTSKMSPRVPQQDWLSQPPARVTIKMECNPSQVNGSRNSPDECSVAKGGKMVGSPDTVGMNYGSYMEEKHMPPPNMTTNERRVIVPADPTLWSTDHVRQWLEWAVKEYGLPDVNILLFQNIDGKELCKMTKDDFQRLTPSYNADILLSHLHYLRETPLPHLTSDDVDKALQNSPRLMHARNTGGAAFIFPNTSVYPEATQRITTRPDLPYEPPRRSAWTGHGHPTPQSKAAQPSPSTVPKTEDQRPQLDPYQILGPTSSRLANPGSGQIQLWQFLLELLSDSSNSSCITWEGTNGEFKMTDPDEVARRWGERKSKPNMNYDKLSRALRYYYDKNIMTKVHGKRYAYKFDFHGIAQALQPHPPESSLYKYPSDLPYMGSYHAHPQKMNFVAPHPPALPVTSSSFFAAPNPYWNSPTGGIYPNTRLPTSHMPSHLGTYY

biological target: Transcriptional regulator ERG (Homo sapiens) (UniProt P11308); test: qHTS for Small Molecule Inhibitors of the ERG Ets/DNA interaction; conditions: fluorescence polarization, His-ERG Ets domain / labelled DNA; series mostly up to 76.9 µM
Method in brief: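 His-tagged ERG Ets domain (1 uM in the protein solution; 300mM KCl, 50mM Tris-HCl, 1mM EDTA, 1mM DTT, pH 7.5) received compound, then a probe mix of 5 nM fluorescein-DNA and 100nM Texas-615-DNA. Fluorescence polarization was read for both dyes.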
Potency is read from the fitted curve at half-maximal effect.

Compound | Potency
Fc1ccc(SCCc2ccncc2)cc1 | inconclusive: 6.31 µM [fluorescent, side channel, single point]
COc1ccc(/C=C/C(=O)c2c(O)cc(C)oc2=O)c(OC)c1 | inconclusive: 35.5 µM [fluorescent, side channel, partial curve, poor fit]
Cc1nc(-c2ccc(F)cc2)c(CC(=O)Nc2ccc(C)c(S(=O)(=O)N3CCOCC3)c2)s1 | inconclusive: 12.6 µM [inhibitor, partial curve, poor fit]
O=C(O)CNc1ccccc1C(=O)O | inconclusive: 50.1 µM [inhibitor, single point]
O=C(NCCc1ccccc1)C(=O)Nc1nccs1 | inactive
CCOC(=O)c1oc2cc(OCC(=O)OC)ccc2c(=O)c1-c1ccc(OC)c(OC)c1 | inconclusive: 11.2 µM [inhibitor, partial curve, poor fit]
C[C@H](CO)N1C[C@H](C)[C@@H](CN(C)CC2CCCCC2)Oc2c(NC(=O)C3CC3)cccc2C1=O | inactive
Cc1cc2cc(CNC(=O)c3ccc(S(=O)(=O)N4CCCCC4)cc3)ccc2n1C | inconclusive: 28.2 µM [inhibitor, single point]
CS(=O)(=O)N(CC(=O)Nc1ccccc1)c1cccc(Cl)c1Cl | inconclusive: 11.2 µM [inhibitor, single point]
CSc1nc(-c2ccccc2)nc(SC)c1C(C)=O | inconclusive: 7.94 µM [fluorescent, side channel, partial curve, poor fit]
CC1Nc2nc(N(C)C)[nH]c(=O)c2NC1C (stereo not drawn) | inconclusive: 35.5 µM [inhibitor, single point]
OC(COc1ccc(F)cc1)CN1CCN(CC(O)COc2ccc(F)cc2)CC1 (stereo not drawn) | inactive
COCCOC(=O)c1sc(=S)n(CCOC)c1N | inconclusive: 35.5 µM [inhibitor, partial curve]
O=C1C(Cc2ccccc2)Nc2ncnc(N3CCc4ccccc4C3)c2N1Cc1ccc(Cl)cc1 (stereo not drawn) | inactive
Cc1cccc(C(=O)N(Cc2ccco2)Cc2ccccc2F)c1 | inactive
CCOc1ccc(-c2ncncc2-c2ccccc2OC)c(O)c1 | inconclusive: 50.1 µM [inhibitor, partial curve, poor fit]
CCN1CCN(C(=O)C(=O)c2cn(CC(=O)N3CCCCCC3)c3ccccc23)CC1 | inconclusive: 35.5 µM [inhibitor, single point]
COc1cc(C(=O)NCc2ccc3c(c2)cc(C)n3C)cc(OC)c1OC | inconclusive: 50.1 µM [inhibitor, single point]
CCCc1nc2oc3c(OC)ncnc3c2c2c1COC(C)(C)C2 | inconclusive: 8.91 µM [inhibitor, partial curve, poor fit]
OC(c1cc(C(F)(F)F)nc2c(C(F)(F)F)cccc12)C1CCCCN1 (stereo not drawn) | inconclusive: 50.1 µM [inhibitor, single point]
Cc1cccc(C(=O)NNC(=O)c2ccccc2O)c1 | inactive
COc1ccc(-c2[nH]n(-c3ccc([N+](=O)[O-])cc3)c(=O)c2C=NCc2ccc(F)cc2)cc1 | inactive
O=C(O)Cn1cnc2c(oc3ccccc32)c1=O | inactive

Compound | Potency
COCc1cc(Sc2ccc(Br)cc2)nc(-c2ccccc2)n1 | inactive
CC1(C)C[C@@H]1C(=O)N/C(=C\CCCCSC[C@H](N)C(=O)O)C(=O)O | inconclusive: 3.16 µM [inhibitor, partial curve, poor fit]
COc1ccc(-c2nc(CS(=O)CC(=O)NCc3ccc(F)cc3)c(C)o2)cc1OC (stereo not drawn) | inconclusive: 7.08 µM [quencher, side channel, partial curve, poor fit]
CS(=O)(=O)N1CCN(C(=O)c2ccncc2)CC1 | inactive
COc1cc(/C=N/N2C(=O)CSC2=S)ccc1O | inconclusive: 31.6 µM [fluorescent, side channel, partial curve]
O=C(NCC1CCN(S(=O)(=O)c2ccccc2)CC1)Nc1ccc(F)cc1 | inconclusive: 31.6 µM [inhibitor, single point]
COc1ccc(-c2cc3ccc(OCC(C)=O)cc3oc2=O)cc1OC | inactive
Cc1cc(C)c(C)c(C(=O)C2OC(=O)C(C)(C)C(=O)C2(C)C)c1C (stereo not drawn) | inactive
Cc1ccc(C(=O)N2CCCCC2C(=O)O)cc1S(=O)(=O)N1CCCCC1 (stereo not drawn) | inconclusive: 11.2 µM [inhibitor, partial curve, poor fit]
CCOC(=O)CSc1nnc(CNC(=O)c2cccs2)n1Cc1ccccc1 | inconclusive: 0.794 µM [quencher, side channel, full curve, poor fit]
Cc1cc(Cl)ccc1OCC(=O)N1CCCCC1 | inactive
CCc1ccccc1NC(=O)NC1CCCCC1 | inactive
COC(=O)c1ccccc1NC(=S)NC(C)=O | inactive
O=C(NCC1COc2ccccc2O1)c1cccc(S(=O)(=O)N2CCCCC2)c1 (stereo not drawn) | inconclusive: 31.6 µM [inhibitor, single point]
N#C/C(=C/c1ccc(N2CCOCC2)o1)c1nc2ccccc2[nH]1 | inconclusive: 35.5 µM [fluorescent, side channel, partial curve]
O=C(CSc1nnc(CNC(=O)c2ccccc2)n1-c1cccc(Cl)c1)Nc1ccccc1F | inactive
COc1cc(/C=N/Nc2ccc(Cl)c(C(=O)O)c2)ccc1OC(=O)c1ccc(F)cc1 | inactive
Cc1ccc(N(CCCCN2C(=O)c3ccccc3C2=O)C(=O)c2ccc(Cl)s2)cc1 | inconclusive: 50.1 µM [inhibitor, single point]
COC(=O)/C(=C/Nc1ccc(O)cc1)[N+](=O)[O-] | inconclusive: 25.1 µM [inhibitor, partial curve]
Cc1ccc(Cc2c(C)nc3nc(SCC(=O)NC(C)c4ccccc4)nn3c2C)cc1 (stereo not drawn) | inconclusive: 4.47 µM [quencher, side channel, partial curve, poor fit]
CCOC(=O)/C(C#N)=C\c1cn(C)c2ccccc12 | inactive
Cc1ccccc1OCC(=O)OCC(=O)NCCc1ccccc1 | inconclusive: 8.91 µM [inhibitor, partial curve, poor fit]
NC(=O)c1ccccc1NCC(=O)c1ccc(F)cc1 | inconclusive: 20 µM [inhibitor, partial curve, poor fit]

Sorted by number of heavy atoms (descending): some entries from above.
Compound | Potency
Cc1ccc(Cc2c(C)nc3nc(SCC(=O)NC(C)c4ccccc4)nn3c2C)cc1 (stereo not drawn) | inconclusive: 4.47 µM [quencher, side channel, partial curve, poor fit]
CC1(C)C[C@@H]1C(=O)N/C(=C\CCCCSC[C@H](N)C(=O)O)C(=O)O | inconclusive: 3.16 µM [inhibitor, partial curve, poor fit]
COCc1cc(Sc2ccc(Br)cc2)nc(-c2ccccc2)n1 | inactive
CS(=O)(=O)N1CCN(C(=O)c2ccncc2)CC1 | inactive

(further entries)

Compound | Potency
Cc1cc(C)n(CC(O)Cn2c3ccccc3c3ccccc32)n1 (stereo not drawn) | inactive
CN(C)S(=O)(=O)c1ccc(C(=O)N(c2ccccn2)c2ccccn2)cc1 | inconclusive: 12.6 µM [inhibitor, partial curve, poor fit]
Cc1ccc(/C(O)=C2\C(=O)C(=O)N(CCN(C)C)C2c2ccccc2F)cc1 (stereo not drawn) | inactive
C[C@H](CO)N1C[C@H](C)[C@@H](CN(C)S(=O)(=O)c2ccccc2)Oc2c(cccc2N(C)C)C1=O | inactive
CCN(Cc1ccccc1)C(=O)c1sc2nc3n(c(=O)c2c1C)CCCC3 | inactive
CCN(CC(=O)Nc1ccccc1C(F)(F)F)C(=O)c1ccc(N2C(=O)CCC2=O)cc1 | inconclusive: 3.55 µM [inhibitor, partial curve, poor fit]
CC(C)c1ccc(NC(=O)Cn2nnc(C(=O)NCc3cccs3)c2N)cc1 | inconclusive: 56.2 µM [fluorescent, side channel, partial curve, poor fit]
CCn1c(CSc2nc3ccccc3[nH]2)nc2cc(C(=O)O)ccc21 | inconclusive: 35.5 µM [fluorescent, side channel, single point]
COc1ccc(/C=C2\C(=O)ON=C2c2ccccc2)cc1OC | inactive
Cc1cccc(NCc2n[nH]c(=S)n2-c2ccccc2)c1 | inactive
O=C(CN1C=NS(=O)(=O)c2ccccc21)Nc1ccc(Br)cc1 | inconclusive: 11.2 µM [inhibitor, partial curve, poor fit]
COc1cc(CNCc2ccc(OC)cc2OC)cc(OC)c1 | inconclusive: 0.891 µM [inhibitor, full curve, poor fit]
Cc1ccc(-n2cc(CCCCCCCCC(=O)O)nn2)cc1 | inactive
Nc1ccc(C(=O)O)cc1 | inconclusive: 5.62 µM [inhibitor, single point]
CN(Cc1ccc(C(C)(C)C)cc1)C(=O)c1ccc2c(=O)n3c(nc2c1)CCC3 | inactive
COc1ccc(N=c2scc(C)n2CCCN2CCCC2=O)cc1 | inconclusive: 25.1 µM [inhibitor, partial curve, poor fit]
Cc1cc2oc(C(=O)N3CCN(CCc4ccccn4)CC3)c(C)c2cc1C | inconclusive: 11.2 µM [inhibitor, partial curve, poor fit]
COc1ccccc1N1CCN(C(=O)c2ccc(Cn3c(=O)[nH]c4ccsc4c3=O)cc2)CC1 | inconclusive: 31.6 µM [inhibitor, single point]
c1ccc(-c2cc(-c3ccccc3)c3c(n2)-c2ccccc2OC3)cc1 | inconclusive: 5.62 µM [quencher, side channel, partial curve, poor fit]
O=C(COC(=O)Cn1nc(-c2ccccc2)oc1=O)Nc1ccc(F)cc1 | inactive
Cc1nc2ccc(NC(=O)c3cc([N+](=O)[O-])cc([N+](=O)[O-])c3Cl)cc2s1 | inconclusive: 0.891 µM [quencher, side channel, full curve, poor fit]
Nc1cc(C(=O)OCC(=O)NCCCc2ccccc2)ccc1Cl | inconclusive: 31.6 µM [inhibitor, partial curve, poor fit]
